Only a part is listed here, and it is no random draw. The calls were merged from several studies; some rest on single wells.
How the values were obtained:
Conditions in all cases: stereoisomer not certain
UniProt Q8VGH1 = target: T1, UniProt Q8VGH1
T1 sequence (whole entry): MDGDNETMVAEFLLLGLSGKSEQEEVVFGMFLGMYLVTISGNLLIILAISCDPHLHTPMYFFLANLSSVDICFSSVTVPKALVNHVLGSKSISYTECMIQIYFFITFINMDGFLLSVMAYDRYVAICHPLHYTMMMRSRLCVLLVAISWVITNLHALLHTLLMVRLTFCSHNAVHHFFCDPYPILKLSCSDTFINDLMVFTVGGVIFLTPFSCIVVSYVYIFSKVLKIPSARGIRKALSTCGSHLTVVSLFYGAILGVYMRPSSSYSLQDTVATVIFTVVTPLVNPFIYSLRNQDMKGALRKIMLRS
Outline: (§1)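 Whether a receptor–molecule pair is responsive (active) rests on the original authors' judgment that its measured signal was statistically different from baseline. Pairs without that judgment are non-responsive (inactive). Sources used varied assay methods, commonly transient luciferase assays in mammalian cell lines.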

UniProt Q8VGJ1 = target: T2, UniProt Q8VGJ1
T2 sequence (whole entry): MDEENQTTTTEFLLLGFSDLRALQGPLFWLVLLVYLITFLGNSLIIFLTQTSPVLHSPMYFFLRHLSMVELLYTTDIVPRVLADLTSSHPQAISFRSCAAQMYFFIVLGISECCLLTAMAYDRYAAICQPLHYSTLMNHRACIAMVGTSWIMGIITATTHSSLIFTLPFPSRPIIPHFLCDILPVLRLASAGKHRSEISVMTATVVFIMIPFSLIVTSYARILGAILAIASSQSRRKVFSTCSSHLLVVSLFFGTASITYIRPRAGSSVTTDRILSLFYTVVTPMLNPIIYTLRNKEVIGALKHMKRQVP
Outline: as §1

UniProt Q8VGJ3 = target: T3, UniProt Q8VGJ3
T3 sequence (whole entry): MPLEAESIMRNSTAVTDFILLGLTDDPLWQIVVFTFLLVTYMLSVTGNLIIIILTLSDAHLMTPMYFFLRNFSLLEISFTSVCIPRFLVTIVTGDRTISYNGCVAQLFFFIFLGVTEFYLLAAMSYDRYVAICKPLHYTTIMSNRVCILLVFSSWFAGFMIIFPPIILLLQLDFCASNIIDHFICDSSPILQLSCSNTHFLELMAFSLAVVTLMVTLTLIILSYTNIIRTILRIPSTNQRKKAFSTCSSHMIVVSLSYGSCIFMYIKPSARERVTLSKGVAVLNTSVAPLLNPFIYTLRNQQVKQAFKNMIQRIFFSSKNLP
Outline: as §1

UniProt Q8VGJ5 = target: T4, UniProt Q8VGJ5
T4 sequence (whole entry): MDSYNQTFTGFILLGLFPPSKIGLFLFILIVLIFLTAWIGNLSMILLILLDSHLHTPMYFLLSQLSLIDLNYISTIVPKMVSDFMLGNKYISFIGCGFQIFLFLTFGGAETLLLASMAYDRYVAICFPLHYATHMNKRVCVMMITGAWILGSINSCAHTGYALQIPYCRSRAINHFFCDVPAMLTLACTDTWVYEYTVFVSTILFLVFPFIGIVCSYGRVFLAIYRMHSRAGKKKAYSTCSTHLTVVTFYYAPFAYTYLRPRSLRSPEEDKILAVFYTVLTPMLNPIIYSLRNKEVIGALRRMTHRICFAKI
Outline: as §1

UniProt Q8VGL0 = target: T5, UniProt Q8VGL0
T5 sequence (whole entry): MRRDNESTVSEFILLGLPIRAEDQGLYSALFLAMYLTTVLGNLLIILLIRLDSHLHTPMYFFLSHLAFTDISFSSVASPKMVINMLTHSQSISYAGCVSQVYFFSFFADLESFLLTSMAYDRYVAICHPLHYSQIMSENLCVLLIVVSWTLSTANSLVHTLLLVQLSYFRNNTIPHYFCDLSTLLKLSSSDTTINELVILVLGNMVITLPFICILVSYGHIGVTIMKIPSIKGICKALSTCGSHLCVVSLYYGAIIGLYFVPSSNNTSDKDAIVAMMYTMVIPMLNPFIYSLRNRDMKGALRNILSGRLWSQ
Outline: as §1

UniProt Q8VGL7 = target: T6, UniProt Q8VGL7
T6 sequence (whole entry): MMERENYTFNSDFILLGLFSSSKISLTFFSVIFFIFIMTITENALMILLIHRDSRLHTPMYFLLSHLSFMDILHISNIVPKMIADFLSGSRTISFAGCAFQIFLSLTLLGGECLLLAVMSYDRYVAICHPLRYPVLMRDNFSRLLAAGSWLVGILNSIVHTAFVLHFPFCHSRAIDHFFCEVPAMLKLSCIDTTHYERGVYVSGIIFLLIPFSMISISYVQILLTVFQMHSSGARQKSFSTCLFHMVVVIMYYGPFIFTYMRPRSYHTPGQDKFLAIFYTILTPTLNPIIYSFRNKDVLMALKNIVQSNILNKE
Outline: as §1

UniProt Q8VGM2 = target: T7, UniProt Q8VGM2
T7 sequence (whole entry): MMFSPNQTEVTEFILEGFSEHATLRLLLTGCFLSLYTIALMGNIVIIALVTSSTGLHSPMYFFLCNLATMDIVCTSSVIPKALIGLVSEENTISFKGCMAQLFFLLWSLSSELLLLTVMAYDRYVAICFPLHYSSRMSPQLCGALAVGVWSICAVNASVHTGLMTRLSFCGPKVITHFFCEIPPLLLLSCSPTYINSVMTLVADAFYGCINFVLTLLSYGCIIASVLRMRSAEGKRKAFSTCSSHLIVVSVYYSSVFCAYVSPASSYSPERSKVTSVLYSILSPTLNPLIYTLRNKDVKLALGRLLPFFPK
Outline: as §1

UniProt Q8VGP6 = target: T8, UniProt Q8VGP6
T8 sequence (whole entry): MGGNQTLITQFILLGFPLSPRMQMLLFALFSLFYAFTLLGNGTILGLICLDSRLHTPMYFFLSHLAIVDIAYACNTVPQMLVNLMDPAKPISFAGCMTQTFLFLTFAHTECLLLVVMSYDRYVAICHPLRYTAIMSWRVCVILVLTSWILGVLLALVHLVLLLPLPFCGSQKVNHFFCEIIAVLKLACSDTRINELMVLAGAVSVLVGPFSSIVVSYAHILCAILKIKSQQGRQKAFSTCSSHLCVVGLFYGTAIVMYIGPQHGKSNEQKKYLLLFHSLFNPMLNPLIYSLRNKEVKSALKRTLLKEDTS
Outline: as §1

UniProt Q8VGQ3 = target: T9, UniProt Q8VGQ3
T9 sequence (whole entry): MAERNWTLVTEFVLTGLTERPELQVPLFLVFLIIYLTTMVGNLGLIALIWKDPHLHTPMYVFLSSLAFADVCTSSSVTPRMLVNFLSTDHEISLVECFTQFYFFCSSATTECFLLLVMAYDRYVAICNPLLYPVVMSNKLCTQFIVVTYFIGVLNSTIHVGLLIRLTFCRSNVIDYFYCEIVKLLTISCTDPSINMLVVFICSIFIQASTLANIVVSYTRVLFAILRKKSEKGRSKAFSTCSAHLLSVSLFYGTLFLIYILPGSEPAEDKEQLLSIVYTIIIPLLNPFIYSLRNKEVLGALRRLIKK
Outline: as §1

UniProt Q8VGT4 = target: T10, UniProt Q8VGT4
T10 sequence (whole entry): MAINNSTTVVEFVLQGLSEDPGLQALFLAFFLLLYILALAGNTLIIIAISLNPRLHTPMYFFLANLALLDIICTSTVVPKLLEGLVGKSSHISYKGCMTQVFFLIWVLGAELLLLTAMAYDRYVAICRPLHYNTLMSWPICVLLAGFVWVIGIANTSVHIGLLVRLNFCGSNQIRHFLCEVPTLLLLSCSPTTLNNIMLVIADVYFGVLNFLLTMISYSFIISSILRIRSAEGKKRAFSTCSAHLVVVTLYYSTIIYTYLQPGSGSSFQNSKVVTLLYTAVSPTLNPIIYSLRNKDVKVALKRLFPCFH
Outline: as §1

UniProt Q8VGU3 = target: T11, UniProt Q8VGU3
T11 sequence (whole entry): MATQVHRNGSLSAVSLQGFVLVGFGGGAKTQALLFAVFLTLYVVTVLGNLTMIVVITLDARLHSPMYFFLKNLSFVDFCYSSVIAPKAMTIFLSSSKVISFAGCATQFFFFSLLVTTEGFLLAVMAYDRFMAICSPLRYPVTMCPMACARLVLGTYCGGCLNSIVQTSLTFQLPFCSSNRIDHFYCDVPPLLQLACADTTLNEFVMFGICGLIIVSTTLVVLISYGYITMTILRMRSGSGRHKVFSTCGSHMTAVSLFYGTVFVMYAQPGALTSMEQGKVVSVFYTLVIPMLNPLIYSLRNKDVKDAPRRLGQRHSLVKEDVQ
Outline: as §1

UniProt Q8VGV1 = target: T12, UniProt Q8VGV1
T12 sequence (whole entry): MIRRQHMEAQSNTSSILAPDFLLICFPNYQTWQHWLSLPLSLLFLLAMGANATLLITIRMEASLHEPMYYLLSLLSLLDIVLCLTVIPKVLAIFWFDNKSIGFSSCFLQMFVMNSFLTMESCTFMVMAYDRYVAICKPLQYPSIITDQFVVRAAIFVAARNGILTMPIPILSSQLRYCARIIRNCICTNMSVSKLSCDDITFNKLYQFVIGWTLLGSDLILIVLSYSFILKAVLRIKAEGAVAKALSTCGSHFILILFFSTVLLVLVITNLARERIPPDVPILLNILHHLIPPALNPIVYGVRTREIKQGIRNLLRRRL
Outline: as §1

UniProt Q8VGV7 = target: T13, UniProt Q8VGV7
T13 sequence (whole entry): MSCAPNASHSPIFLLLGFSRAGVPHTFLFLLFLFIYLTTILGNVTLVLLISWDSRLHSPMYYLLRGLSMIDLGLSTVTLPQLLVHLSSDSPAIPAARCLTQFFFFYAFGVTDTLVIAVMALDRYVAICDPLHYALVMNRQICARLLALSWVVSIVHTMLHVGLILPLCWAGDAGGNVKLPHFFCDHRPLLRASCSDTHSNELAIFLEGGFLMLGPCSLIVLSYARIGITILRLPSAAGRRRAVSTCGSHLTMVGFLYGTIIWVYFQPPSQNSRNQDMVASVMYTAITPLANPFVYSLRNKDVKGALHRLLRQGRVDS
Outline: as §1

UniProt Q8VGX3 = target: T14, UniProt Q8VGX3
T14 sequence (whole entry): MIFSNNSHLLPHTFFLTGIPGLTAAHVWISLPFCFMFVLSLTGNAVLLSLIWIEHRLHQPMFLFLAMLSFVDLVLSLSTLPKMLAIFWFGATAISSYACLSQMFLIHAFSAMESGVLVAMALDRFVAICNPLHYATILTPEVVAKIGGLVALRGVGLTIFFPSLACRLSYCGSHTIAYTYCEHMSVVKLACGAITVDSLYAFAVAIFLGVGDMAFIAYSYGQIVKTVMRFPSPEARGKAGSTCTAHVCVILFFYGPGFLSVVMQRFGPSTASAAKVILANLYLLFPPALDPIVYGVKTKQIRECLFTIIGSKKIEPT
Outline: as §1

UniProt Q8VGX5 = target: T15, UniProt Q8VGX5
T15 sequence (whole entry): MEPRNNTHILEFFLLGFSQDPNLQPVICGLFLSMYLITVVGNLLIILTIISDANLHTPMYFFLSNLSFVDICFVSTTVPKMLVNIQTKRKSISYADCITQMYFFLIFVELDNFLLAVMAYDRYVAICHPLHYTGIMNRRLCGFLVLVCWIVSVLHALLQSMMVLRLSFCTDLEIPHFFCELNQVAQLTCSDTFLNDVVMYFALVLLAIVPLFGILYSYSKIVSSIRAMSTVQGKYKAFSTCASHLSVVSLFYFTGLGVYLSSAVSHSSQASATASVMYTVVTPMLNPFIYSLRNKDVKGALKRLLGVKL
Outline: as §1

UniProt Q8VGX8 = target: T16, UniProt Q8VGX8
T16 sequence (whole entry): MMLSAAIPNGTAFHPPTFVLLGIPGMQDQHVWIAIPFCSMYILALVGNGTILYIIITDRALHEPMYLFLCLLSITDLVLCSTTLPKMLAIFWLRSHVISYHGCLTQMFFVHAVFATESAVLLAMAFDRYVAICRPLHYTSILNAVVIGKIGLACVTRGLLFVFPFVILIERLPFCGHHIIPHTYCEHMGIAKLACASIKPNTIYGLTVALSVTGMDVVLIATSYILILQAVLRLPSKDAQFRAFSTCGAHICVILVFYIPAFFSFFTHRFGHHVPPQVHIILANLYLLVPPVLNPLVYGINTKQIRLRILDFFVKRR
Outline: as §1

UniProt Q8VGY6 = target: T17, UniProt Q8VGY6
T17 sequence (whole entry): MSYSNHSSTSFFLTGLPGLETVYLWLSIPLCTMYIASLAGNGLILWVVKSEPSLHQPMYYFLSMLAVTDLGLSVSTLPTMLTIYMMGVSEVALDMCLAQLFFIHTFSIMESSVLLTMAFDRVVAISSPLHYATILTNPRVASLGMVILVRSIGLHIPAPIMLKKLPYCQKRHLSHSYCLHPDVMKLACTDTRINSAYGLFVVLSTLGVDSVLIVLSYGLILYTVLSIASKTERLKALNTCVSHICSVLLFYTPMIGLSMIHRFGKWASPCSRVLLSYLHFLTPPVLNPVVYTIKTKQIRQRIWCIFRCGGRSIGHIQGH
Outline: as §1

UniProt Q8VGZ2 = target: T18, UniProt Q8VGZ2
T18 sequence (whole entry): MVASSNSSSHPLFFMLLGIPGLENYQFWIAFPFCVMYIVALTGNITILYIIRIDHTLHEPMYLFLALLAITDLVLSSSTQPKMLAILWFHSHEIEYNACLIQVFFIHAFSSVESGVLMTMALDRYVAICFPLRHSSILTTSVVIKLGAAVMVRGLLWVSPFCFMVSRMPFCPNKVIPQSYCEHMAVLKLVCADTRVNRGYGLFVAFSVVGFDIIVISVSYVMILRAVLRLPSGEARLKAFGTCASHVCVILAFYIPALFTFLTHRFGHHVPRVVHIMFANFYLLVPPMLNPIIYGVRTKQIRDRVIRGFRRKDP
Outline: as §1

Measured: odorant receptor agonist call;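 also: active if original authors judged signal statistically different from baseline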

CC(C)(O)CCCC1=CCC(C=O)CC1 (stereo not drawn)
inactive: all assays above

Reference: the M2OR odorant receptor database
